Measured values published in article doi:10.1101/2025.10.15.682653.
These are yes or no findings as the source states them, for the method shown. Binding seen in cells or lysates may run through a third protein. Some results given as binding are weak or reduced against the parent protein; the word gives no strength.

The chains behind the UniProt entries cited, without tags or fusion partners. Where a name states a change or a piece, a line headed by the entry shows the natural chain unless it says otherwise.
UniProt Q96EB6, whole entry: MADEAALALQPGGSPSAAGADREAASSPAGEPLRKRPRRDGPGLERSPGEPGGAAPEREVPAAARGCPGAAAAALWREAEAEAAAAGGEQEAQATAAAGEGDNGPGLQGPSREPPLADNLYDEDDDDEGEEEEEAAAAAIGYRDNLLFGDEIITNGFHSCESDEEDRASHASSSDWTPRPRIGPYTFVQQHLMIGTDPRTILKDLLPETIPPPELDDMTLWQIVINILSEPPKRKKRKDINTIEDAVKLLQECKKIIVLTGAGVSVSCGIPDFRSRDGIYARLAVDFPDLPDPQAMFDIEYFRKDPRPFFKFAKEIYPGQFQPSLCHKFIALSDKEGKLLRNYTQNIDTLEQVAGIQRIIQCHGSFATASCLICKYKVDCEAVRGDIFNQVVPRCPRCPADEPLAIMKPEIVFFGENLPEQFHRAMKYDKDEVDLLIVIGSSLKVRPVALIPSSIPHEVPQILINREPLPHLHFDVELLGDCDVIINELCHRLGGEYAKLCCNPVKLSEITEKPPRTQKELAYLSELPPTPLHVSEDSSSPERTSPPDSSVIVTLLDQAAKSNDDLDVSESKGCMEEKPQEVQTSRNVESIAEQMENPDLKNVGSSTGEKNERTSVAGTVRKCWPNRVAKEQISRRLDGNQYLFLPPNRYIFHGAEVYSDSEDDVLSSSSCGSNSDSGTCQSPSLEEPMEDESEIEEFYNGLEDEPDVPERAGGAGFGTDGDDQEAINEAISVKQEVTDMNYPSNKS
UniProt Q6ZQF0, whole entry: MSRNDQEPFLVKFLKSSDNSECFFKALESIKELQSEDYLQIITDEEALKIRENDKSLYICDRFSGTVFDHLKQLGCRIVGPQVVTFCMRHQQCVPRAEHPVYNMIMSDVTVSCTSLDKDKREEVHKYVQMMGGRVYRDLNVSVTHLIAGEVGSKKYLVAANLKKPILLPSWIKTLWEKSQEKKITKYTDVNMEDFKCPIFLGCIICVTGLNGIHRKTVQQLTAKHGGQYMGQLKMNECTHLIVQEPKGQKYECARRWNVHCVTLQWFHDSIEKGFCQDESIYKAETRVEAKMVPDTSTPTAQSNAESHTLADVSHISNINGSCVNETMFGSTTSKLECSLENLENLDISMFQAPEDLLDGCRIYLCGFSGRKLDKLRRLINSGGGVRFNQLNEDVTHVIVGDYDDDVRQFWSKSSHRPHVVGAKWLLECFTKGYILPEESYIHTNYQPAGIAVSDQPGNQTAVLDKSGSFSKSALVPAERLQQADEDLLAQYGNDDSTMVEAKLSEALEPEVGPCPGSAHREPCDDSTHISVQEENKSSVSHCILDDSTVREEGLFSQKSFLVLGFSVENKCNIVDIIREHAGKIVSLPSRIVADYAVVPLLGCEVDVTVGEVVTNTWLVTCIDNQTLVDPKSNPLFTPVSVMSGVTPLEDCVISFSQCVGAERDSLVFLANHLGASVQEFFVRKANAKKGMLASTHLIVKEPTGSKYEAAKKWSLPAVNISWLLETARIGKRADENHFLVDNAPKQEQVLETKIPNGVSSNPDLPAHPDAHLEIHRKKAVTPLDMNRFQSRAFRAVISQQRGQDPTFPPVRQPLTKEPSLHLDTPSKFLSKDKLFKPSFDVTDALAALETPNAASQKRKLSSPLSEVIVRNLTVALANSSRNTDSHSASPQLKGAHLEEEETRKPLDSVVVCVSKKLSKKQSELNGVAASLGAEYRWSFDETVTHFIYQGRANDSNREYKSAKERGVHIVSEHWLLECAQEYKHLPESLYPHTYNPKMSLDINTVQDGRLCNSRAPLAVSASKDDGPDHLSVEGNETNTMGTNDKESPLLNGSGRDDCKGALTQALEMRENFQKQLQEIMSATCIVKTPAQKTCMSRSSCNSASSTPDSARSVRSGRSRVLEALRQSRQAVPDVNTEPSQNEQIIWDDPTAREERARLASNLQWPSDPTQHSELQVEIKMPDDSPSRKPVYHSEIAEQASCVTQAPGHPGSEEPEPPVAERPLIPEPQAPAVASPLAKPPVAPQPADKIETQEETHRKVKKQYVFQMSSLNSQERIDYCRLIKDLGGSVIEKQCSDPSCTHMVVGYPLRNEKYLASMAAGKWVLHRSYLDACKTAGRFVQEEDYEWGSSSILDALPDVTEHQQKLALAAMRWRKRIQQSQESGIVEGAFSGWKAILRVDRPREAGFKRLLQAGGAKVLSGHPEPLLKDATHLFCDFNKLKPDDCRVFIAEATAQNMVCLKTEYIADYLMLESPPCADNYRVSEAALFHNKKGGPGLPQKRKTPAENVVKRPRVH
UniProt O96017, whole entry: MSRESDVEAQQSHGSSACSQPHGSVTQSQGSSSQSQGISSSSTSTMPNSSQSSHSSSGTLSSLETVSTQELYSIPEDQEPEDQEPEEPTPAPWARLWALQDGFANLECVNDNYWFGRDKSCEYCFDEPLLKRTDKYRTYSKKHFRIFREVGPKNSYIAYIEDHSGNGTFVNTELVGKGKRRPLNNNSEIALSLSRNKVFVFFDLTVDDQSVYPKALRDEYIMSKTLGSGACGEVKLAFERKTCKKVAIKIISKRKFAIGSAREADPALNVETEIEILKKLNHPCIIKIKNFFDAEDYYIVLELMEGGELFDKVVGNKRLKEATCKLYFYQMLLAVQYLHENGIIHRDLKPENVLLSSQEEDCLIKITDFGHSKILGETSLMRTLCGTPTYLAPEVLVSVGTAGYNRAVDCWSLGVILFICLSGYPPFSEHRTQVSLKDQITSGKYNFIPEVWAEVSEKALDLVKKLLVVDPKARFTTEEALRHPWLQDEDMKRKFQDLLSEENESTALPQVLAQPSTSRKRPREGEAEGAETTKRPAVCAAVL
UniProt Q8VDP4, whole entry: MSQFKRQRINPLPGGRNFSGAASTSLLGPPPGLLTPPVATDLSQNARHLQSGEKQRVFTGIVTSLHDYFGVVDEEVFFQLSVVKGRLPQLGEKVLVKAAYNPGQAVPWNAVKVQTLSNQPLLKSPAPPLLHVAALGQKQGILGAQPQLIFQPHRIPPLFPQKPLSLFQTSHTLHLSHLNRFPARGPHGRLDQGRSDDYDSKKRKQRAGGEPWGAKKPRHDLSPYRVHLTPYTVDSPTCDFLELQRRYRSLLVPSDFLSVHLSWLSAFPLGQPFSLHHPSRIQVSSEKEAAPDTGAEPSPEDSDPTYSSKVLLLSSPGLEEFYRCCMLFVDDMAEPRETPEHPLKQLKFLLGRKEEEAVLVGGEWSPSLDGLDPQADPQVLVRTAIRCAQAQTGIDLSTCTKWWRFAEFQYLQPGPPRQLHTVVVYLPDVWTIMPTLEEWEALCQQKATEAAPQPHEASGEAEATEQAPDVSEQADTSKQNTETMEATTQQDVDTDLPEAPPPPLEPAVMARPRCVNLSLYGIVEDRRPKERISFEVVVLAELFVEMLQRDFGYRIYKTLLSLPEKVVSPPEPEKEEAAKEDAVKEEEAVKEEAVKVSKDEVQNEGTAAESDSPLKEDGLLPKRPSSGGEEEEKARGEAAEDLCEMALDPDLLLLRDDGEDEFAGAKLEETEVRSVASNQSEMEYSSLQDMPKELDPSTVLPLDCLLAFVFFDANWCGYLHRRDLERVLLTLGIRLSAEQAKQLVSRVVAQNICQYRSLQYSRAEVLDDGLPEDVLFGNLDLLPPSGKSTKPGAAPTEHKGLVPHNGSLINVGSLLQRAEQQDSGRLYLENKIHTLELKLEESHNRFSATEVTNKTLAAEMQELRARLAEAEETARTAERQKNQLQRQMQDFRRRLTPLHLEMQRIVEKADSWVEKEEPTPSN
UniProt Q13535, whole entry: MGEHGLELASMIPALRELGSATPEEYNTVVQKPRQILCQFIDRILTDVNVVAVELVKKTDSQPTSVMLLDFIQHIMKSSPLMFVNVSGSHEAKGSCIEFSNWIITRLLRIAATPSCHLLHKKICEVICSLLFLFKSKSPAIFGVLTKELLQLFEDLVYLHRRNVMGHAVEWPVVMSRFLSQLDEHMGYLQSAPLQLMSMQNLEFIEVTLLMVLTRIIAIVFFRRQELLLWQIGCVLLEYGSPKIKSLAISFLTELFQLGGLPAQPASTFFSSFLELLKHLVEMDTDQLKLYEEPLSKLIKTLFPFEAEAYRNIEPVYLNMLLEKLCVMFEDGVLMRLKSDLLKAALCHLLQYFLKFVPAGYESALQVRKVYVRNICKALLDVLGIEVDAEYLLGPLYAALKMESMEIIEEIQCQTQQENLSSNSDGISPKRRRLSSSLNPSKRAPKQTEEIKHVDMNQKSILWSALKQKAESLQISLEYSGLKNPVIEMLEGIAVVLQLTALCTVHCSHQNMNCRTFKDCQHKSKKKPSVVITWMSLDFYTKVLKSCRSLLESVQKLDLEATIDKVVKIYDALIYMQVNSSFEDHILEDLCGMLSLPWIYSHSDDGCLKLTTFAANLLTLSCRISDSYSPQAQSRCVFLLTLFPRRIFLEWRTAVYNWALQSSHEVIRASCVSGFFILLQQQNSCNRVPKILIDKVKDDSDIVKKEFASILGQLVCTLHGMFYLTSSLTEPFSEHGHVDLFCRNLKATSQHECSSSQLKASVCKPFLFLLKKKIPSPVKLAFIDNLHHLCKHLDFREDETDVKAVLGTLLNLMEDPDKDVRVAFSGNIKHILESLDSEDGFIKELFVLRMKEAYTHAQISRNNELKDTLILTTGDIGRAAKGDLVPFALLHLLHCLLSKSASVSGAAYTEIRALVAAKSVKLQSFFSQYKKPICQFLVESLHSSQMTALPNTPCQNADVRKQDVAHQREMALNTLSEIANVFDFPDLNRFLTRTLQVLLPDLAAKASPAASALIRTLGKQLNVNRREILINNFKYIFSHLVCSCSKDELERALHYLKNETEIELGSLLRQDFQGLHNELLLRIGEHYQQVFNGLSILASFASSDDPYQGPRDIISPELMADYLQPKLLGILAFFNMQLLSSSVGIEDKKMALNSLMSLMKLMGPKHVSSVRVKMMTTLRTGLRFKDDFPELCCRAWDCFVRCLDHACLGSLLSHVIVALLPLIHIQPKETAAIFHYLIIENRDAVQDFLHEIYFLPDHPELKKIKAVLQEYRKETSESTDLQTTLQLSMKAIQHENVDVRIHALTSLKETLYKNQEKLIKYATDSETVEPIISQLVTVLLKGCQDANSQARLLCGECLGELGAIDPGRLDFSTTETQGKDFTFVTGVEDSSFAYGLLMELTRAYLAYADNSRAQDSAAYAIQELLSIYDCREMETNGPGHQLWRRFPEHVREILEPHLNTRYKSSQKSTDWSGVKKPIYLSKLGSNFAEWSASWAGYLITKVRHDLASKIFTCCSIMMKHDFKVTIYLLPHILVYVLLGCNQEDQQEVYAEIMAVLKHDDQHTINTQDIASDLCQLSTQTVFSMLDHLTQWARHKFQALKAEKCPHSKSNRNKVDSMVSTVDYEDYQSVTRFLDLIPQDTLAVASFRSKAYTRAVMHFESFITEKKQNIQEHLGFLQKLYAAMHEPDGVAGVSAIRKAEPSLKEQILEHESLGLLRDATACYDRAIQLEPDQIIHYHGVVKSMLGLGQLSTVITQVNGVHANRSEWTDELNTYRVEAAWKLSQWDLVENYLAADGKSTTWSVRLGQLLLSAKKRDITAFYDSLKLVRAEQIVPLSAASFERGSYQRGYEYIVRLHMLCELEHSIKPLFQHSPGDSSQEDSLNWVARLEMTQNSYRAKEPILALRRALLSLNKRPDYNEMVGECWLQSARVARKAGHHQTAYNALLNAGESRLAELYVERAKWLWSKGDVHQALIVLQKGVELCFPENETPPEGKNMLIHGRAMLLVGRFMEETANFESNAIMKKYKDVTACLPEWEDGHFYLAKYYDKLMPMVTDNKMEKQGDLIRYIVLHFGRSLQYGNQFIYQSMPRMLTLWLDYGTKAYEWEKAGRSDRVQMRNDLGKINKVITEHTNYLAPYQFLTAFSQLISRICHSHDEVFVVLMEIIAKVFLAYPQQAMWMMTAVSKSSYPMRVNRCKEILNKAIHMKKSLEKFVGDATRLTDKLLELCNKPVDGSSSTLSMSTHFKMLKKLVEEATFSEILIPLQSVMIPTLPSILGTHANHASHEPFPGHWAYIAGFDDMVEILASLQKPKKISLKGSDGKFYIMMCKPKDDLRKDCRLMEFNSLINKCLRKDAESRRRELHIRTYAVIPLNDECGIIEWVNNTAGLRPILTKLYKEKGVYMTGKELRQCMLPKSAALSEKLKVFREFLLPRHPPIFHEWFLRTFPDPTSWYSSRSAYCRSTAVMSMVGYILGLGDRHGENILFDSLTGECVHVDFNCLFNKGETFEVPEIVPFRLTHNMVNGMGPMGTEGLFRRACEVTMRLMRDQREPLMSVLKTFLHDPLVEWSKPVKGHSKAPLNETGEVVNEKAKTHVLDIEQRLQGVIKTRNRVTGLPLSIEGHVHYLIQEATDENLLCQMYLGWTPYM

Assays:
Test in all cases: co-IP
[1] = target: SIRT1 (human (endogenous in N/Tert-1, HFK, W12, UM-SCC cells and PDX tumours)) (UniProt Q96EB6)
[2] = target: mTOPBP1 (mouse (endogenous in NIH 3T3 cells and FVB/N female reproductive tract tissue)) (UniProt Q6ZQF0)
[3] = target: mCIP2A (mouse (endogenous in FVB/N female reproductive tract tissue)) (UniProt Q8BWY9)
[4] = target: T1, mSIRT1 (mouse (endogenous in FVB/N female reproductive tract tissue)) (UniProt Q923E4)
T1 sequence: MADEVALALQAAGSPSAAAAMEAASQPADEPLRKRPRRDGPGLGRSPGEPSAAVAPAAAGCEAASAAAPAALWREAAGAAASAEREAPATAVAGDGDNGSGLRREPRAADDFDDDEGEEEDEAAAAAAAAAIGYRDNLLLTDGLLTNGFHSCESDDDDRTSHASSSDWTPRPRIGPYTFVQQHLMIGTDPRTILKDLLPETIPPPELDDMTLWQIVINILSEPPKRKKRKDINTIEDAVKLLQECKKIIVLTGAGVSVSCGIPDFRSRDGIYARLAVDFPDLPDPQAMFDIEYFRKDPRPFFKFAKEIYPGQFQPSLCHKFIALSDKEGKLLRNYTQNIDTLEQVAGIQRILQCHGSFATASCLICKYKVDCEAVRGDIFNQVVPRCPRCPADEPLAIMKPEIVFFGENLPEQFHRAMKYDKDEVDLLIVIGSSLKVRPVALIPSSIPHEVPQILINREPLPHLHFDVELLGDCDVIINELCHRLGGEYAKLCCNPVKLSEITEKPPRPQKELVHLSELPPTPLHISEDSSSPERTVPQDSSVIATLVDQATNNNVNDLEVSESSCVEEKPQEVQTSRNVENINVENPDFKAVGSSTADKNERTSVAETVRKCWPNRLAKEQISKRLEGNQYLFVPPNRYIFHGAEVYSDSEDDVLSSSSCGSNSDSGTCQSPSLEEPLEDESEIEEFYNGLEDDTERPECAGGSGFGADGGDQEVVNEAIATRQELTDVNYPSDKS

[5] = target: TOPBP1 (human (endogenous in N/Tert-1, HFK, W12, UM-SCC cells and PDX tumours)) (UniProt Q92547)
[6] = target: HPV16 E2-S23A (human papillomavirus 16) (UniProt P03120)

## HPV16 E2 wild type (from UniProt P03120 1-365)
[1]
  binding: binds

## CHK2 (from UniProt O96017 1-543)
[1]
  binding: binds

## mCIP2A (from UniProt Q8BWY9 1-907)
[2]
  binding: binds

## mB56α (from UniProt Q6PD03 1-486)
[3]
  binding: binds

## mDBC1 (from UniProt Q8VDP4 1-922)
[4]
  binding: binds

## ATR (from UniProt Q13535 1-2644)
[5]
  binding: binds
[6]
  binding: no binding
